Test results as given in PubChem BioAssay AID1487 (National Center for Advancing Translational Sciences (NCATS), 2009).
The list shows a part of the results. The main result of the screen is listed elsewhere. These columns were measured beside it and carry no call. Most of these compounds were active or inconclusive in the main read-out, so they are no random draw. Potencies come from curve fits of mixed quality, noted in brackets.

Experiment: qHTS Assay for Modulators of Lamin A Splicing
Settings: HeLa LMNA splicing GFP/RFP minigene ratio, 48 h
In short: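 Read-out is the ratio of GFP to DsRed2 object intensity, acquired by 488 nm laser-scanning cytometry on HeLa lamin A-EGFP minigene reporter cells. Compound incubation 48 hrs at 37 °C in Opti-MEM with 2% FBS; DMSO 0.5% final.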

[1] = measured here: RFP viability control channel
[2] = measured here: GFP splicing reporter channel

| SMILES | AC50 [1] | AC50 [2] |
| --- | --- | --- |
| Cn1c(SCC(=O)N2CCCc3ccccc32)nc2cccnc21 | 17.8 µM [rising, single point] |  |
| COc1ccc(C2C=C(c3ccc(C)cc3)Nc3c(C(=O)Nc4ccccc4)cnn32)cc1 (configuration not stated) | 15.8 µM [rising, single point] |  |
| O=c1c2ccccc2nc(/C=C/c2ccc([N+](=O)[O-])cc2)n1CCCO | 35.5 µM [rising, single point] |  |
| CCOC(=O)N1CCN(C(=O)c2ccc3c(=O)n(Cc4ccccc4OC)c(=S)[nH]c3c2)CC1 | 25.1 µM [rising, single point] | 17.8 µM [rising, single point] |
| CCOC(=O)Cn1c(=O)c2c(nc(N3CCCCC3)n2Cc2ccccc2)n(C)c1=O | 14.1 µM [rising, single point] |  |
| Cc1cccc(N2CCN(C(=O)c3ccc4ncsc4c3)CC2)c1C | 12.6 µM [rising, partial curve] |  |
| CC(C)Cn1c(SCC(=O)N2CCN(S(=O)(=O)c3ccccc3)CC2)nc2ccccc21 | 25.1 µM [rising, partial curve, poor fit] |  |
| C/C(=N\NC(=O)c1cccc(Cl)c1)C1C(=O)c2ccccc2C1=O | 8.91 µM [rising, single point] |  |
| Cn1cc(CN2C[C@H]3CC[C@H]2C3)c(-c2ccccc2F)n1 | 0.01 µM [falling, full curve, poor fit] |  |
| O=C(CN1CCN(c2ccc(Cl)cc2)CC1)Nc1ccc(F)cc1 | 6.31 µM [rising, single point] | 3.55 µM [rising, single point] |
| CN1CCN(c2nc(-c3cccs3)nc3ccccc23)CC1 | 12.6 µM [rising, single point] |  |
| CC(OC(=O)C1CCN(S(=O)(=O)c2ccc(Cl)cc2)CC1)C(=O)N1CCc2ccccc21 (configuration not stated) | 12.6 µM [rising, single point] |  |
| COc1ccc(/C=C/C(=O)c2cc(Br)ccc2O)cc1OC |  | 0.0447 µM [falling, full curve, poor fit] |
| COc1nc(NCCc2ccc(OC)c(OC)c2)nc(OC)n1 | 3.55 µM [rising, partial curve, poor fit] | 0.2 µM [rising, full curve, poor fit] |
| Cc1nc(C)c(-c2csc(NCc3ccccc3)n2)s1 | 35.5 µM [rising, single point] |  |
| CN(Cc1ccccc1F)c1nc(-c2cccs2)nc2ccccc12 | 11.2 µM [rising, partial curve] | 6.31 µM [rising, partial curve, poor fit] |
| CCSc1ccccc1C(=O)n1nnc2ccccc21 | 2.82 µM [falling, partial curve] | 2.51 µM [falling, partial curve, poor fit] |
| Cn1c(N2CCOCC2)c(/C=N/OC(=O)c2ccc(F)cc2)c2ccccc21 | 7.08 µM [falling, full curve] | 3.16 µM [falling, partial curve] |

| SMILES | AC50 [1] | AC50 [2] |
| --- | --- | --- |
| C[C@@H]1NC(=O)c2cc([N+](=O)[O-])cc(I)c2OCC[C@@H](C(N)=O)NC(=O)[C@H](CCCCN)NC1=O | 20 µM [rising, single point] |  |
| O=C(c1ccccc1[N+](=O)[O-])N1CCC(Cc2ccccc2)CC1 |  | 1.12 µM [falling, single point] |
| CC(C)CCNC(=O)CCCOc1cc(=O)n(C)c2ccccc12 | 22.4 µM [rising, single point] | 35.5 µM [rising, single point] |
| CCC1=NN(C(=O)c2ccc(C)cc2)C(O)(c2ccc(Br)cc2)C1 (configuration not stated) | 35.5 µM [rising, single point] |  |
| COC(=O)c1[nH]c2ccccc2c1NS(=O)(=O)c1ccc(F)c(C)c1 | 35.5 µM [rising, single point] |  |
| CCOc1ccc2nc(N(Cc3cccnc3)C(=O)c3cccs3)sc2c1 |  | 35.5 µM [falling, partial curve, poor fit] |
| COc1ccccc1NS(=O)(=O)c1cc(NC(=O)CCC2CCCC2)ccc1N1CCOCC1 | 1 µM [rising, full curve, poor fit] |  |
| CCc1ccc(NC(=O)c2ccc(OC)c([N+](=O)[O-])c2)cc1 | 35.5 µM [rising, single point] |  |
| O=C(Nc1nc(-c2ccc(Oc3ccccc3)cc2)cs1)C1=COCCO1 | 14.1 µM [rising, partial curve] | 11.2 µM [rising, partial curve] |
| CCN(Cc1ccccc1)C(c1ccc(C)cc1)c1nnnn1C(C)(C)CC (configuration not stated) | 31.6 µM [rising, single point] | 14.1 µM [rising, single point] |
| CCOC(=O)CN(C(=O)CSc1nnc(-c2cccc(OC)c2)o1)c1ccc(F)cc1 | 15.8 µM [rising, partial curve] | 7.94 µM [rising, partial curve] |
| O=C(O)CCCCCNc1ncnc2ccc(Br)cc12 |  | 0.0794 µM [rising, full curve, poor fit] |
| O=C(Nc1nnc(C2=COCCO2)o1)c1ccc(Cl)cc1 | 11.2 µM [rising, partial curve, poor fit] |  |
| COc1ccc(C)c2sc(NC(=O)c3ccc(S(=O)(=O)N4CCOCC4)cc3)nc12 | 3.98 µM [falling, full curve, poor fit] |  |
| Cc1ccc(NC(=O)c2ccc(Cn3cc(Br)cn3)o2)cc1 | 12.6 µM [rising, partial curve] | 14.1 µM [rising, partial curve] |
| CN[C@H]1[C@@H](O[C@@H]2[C@H](O[C@@H]3[C@@H](O)[C@@H](O)[C@@H](N=C(N)N)[C@@H](O)[C@@H]3N=C(N)N)O[C@H](C)[C@@]2(O)C=O)O[C@@H](CO)[C@@H](O)[C@H]1O | 0.00891 µM [falling, full curve] | 0.00398 µM [falling, full curve] |
| N#C/C(=C/c1ccc(Sc2nc3ccccc3[nH]2)o1)c1ccccc1F | 10 µM [rising, partial curve] |  |

As entered above:
Under AC50 [1], `COC(=O)c1[nH]c2ccccc2c1NS(=O)(=O)c1ccc(F)c(C)c1` shows 35.5 µM [rising, single point]
Under AC50 [1], `CCC1=NN(C(=O)c2ccc(C)cc2)C(O)(c2ccc(Br)cc2)C1` (configuration not stated) shows 35.5 µM [rising, single point]
